# From the supplement of paper PMC3334620
# Whole data set: some 33,000 sequences, median “E-score (-0.5 to 0.5)” near -8e-05, cut for the highest 2% near 0.23. The list shows a part of the results.
# Target: T1, Nrg2 (UniProt P38082)
# T1 sequence: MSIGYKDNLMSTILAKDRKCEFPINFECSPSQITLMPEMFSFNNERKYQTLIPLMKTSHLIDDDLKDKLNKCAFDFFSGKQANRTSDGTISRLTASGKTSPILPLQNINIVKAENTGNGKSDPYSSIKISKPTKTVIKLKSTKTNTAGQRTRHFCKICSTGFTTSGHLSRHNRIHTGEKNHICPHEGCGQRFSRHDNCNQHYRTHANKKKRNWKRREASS
# Assay: PBM E-score (8-mer binding enrichment) (E-score (-0.5 to 0.5)); higher = stronger / more preferred TF binding
# Details: protein concentration: 100 nM; construct: GST-full length
# Experimental: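 Universal 'all 10-mer' protein binding microarrays (Agilent AMADID 015681) probed with GST-tagged S. cerevisiae TFs (full-length or DBD) made by in vitro transcription/translation (PURExpress), about 100-200 nM. Bound TF was detected with fluorescent anti-GST. Each ungapped 8-mer (which stands for itself and its reverse complement) is scored by the PBM enrichment score (E-score), a modified Wilcoxon-Mann-Whitney statistic from -0.5 to +0.5, computed with the Universal PBM Analysis Suite. Scale: above 0.35 generally sequence-specific binding.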
row,Sequence,PBM E-score
1,AGCCGCTC,-0.0104
2,ACGGAGTG,-0.06
3,AGCGCCAT,-0.111
4,CAAGTACC,-0.0878
5,AGGTCGGC,0.00778
6,AACTCTAG,-0.0836
7,AGATCCCT,0.156
8,AGCCGCTG,-0.135
9,CACCTTCA,-0.0868
10,ACCCGTGA,-0.125
11,CTGCTAAC,-0.0562
12,ACCACACC,0.011
13,GGGACCCC,0.164
14,AAGGAGGT,-0.191
15,ACTCCAAA,-0.0826
16,CTTCCCTA,-0.107
17,ACCATCCC,0.0369
18,AGTTGCCA,-0.0533
19,CCTGTCGA,-0.00079
20,CTGGTAAC,0.0868
21,AAAATGAG,0.0582
22,AATGACGG,0.125
23,CACTGTGC,0.0456
24,CACAGGGG,-0.0405
25,ATCGCTAG,0.0625

row,Sequence,PBM E-score
1,GGGGAAGA,-0.245
2,TGCGAACA,-0.0187
3,AGTAGAAG,-0.0258
4,AAGACAGT,-0.0479
5,ACAGGGGC,0.0717
6,CCCCGAAC,-0.0702
7,CAGTGGTA,-0.0969
8,AAGGGGAA,-0.201
9,ATAAGCGG,-0.0586
10,AATCTGGG,-0.13
11,GCACCCAC,0.098
12,AACAGACT,0.0725
13,AGCTAGGA,0.0833
14,ACTAGGAT,-0.0878
15,CCCGTACC,-0.0377
16,CAGTTAGC,-0.155
17,AACGATCA,-0.144
18,AAACTGAG,-0.0822
19,GTGGCCGA,-0.025
20,GTGGATTA,0.0668
21,AGCAGGAC,0.0159
22,CACTCAGA,0.159
23,TATGTGGA,0.134
24,ATGACCGG,-0.241
25,GATTCTCC,-0.0747

row,Sequence,PBM E-score
1,AGTATTTC,0.122
2,CCCCTGAC,0.235
3,CCCTTCAA,-0.0779
4,AAACTCGT,0.131
5,AAATCGGT,-0.173
6,TAGGAGAA,-0.208
7,ACTCGAGC,0.073
8,CGGCGGGC,0.0159
9,ACGCTGGG,-0.193
10,GGTAGTTA,0.0019
11,GTGATTCA,0.0815
12,CGTAATTA,0.041
13,GGAGTCGA,-0.065
14,CGTACGAC,-0.248
15,CAGATCAC,-0.109
16,CGATGGAG,-0.0647
17,ACTGGGAT,-0.0295
18,ACATATAC,0.034
19,CGGCAGGC,-0.196
20,AGGCAAGG,-0.259
21,ATGGACGG,-0.00375
22,CACCGTGG,-0.154
23,CAGTCCGC,-0.156
24,GGCTGCGA,-0.145
25,AGCTAAAG,-0.141

row,Sequence,PBM E-score
1,CATCAAAG,-0.0279
2,ACTACGTG,-0.22
3,AAACTATA,0.0775
4,AAACCTTA,0.0529
5,ACGACGCC,-0.203
6,ATGCGAGA,-0.0118
7,CCGCTGCC,-0.109
8,CAAATACC,-0.0494
9,CGCGTCAA,-0.0451
10,ATCGTGAG,0.0132
11,AGCCAAAC,0.121
12,CGAATCTC,-0.00192
13,ATACTAAA,0.234
14,CAATCGGG,-0.00241
15,CTGCGTCC,-0.0464
16,GGCTTTAA,-0.0395
17,GAGATCTC,0.095
18,ATCCTGTA,-0.0537
19,AGCAAATG,0.0488
20,GGCATTAC,0.117
21,TAGAGACA,-0.125
22,TATGTAGA,0.00754
23,AGATGAGC,0.00437
24,CATGCAAG,0.088
25,CACGAGGA,0.0348

row,Sequence,PBM E-score
1,CCGAGCTA,-0.0408
2,ATGGTGGC,-0.337
3,GAGTCATA,-0.106
4,ATATTTAC,0.0835
5,AAAAGTGA,0.162
6,GGAACGGA,-0.0562
7,AGTAACAA,0.0385
8,CGCCTACA,0.0409
9,CGCCTAGC,-0.315
10,GCACGCAA,-0.154
11,GGAATATA,0.226
12,CTACAGAG,-0.106
13,AAACGGCT,-0.0934
14,AAGTGAAG,0.119
15,ATGGAGTG,-0.118
16,ACTATCAT,0.0714
17,AGTTCACA,0.0346
18,AGGTTAGA,-0.149
19,TCAATCAA,0.0432
20,CGTATATC,0.00015
21,ACCGCAAC,0.269
22,ATCCCCCC,-0.386
23,CTCAGGCC,-0.257
24,CGTGCCTA,-0.0338
25,ACTCCGCT,-8e-05

row,Sequence,PBM E-score
1,AGTACTCG,0.115
2,CTTTTCCA,-0.202
3,CGCCAGGC,-0.0686
4,GACTCCCA,-0.248
5,GCGTTATA,0.0618
6,CATGGGTC,-0.0418
7,GAATCAAC,0.144
8,AGCTCTAG,-0.0598
9,GACACGAA,0.142
10,GGGTCGTA,-0.00314
11,CACATCAA,0.105
12,TACGTGCA,0.0733
13,AGAAGGAT,-0.123
14,ACCCCATA,0.128
15,CCTTGAAG,-0.0902
16,TAGGGGAA,0.0444
17,ACAGTCCC,-0.103
18,GCATGCAC,0.103
19,CCGAATCA,-0.00689
20,GCCATTAA,0.0831
21,ACGCCAGC,-0.0279
22,GGCGACTA,-0.0199
23,CTCAATCC,-0.0337
24,TAGCCTCA,-0.0677
25,CTCCCCTA,-0.0407

# Copied from the list.
# Value of TAGCCTCA under PBM E-score: -0.0677
# Value of AGCTCTAG under PBM E-score: -0.0598
# Value of GCATGCAC under PBM E-score: 0.103
# Value of CCTTGAAG under PBM E-score: -0.0902
# Value of GACTCCCA under PBM E-score: -0.248

# (cont.)

row,Sequence,PBM E-score
1,ATTTTACA,-0.0773
2,CGCCGCAG,0.0765
3,CGCTTGCA,0.0782
4,CAACGGAC,-0.0576
5,ATGGGCCC,0.186
6,AGGGCGTC,-0.0155
7,CTTCGTGC,-0.0234
8,TCCCGACA,-0.0979
9,GTCCTCTA,-0.206
10,AAAGAATA,0.136
11,AATAAGAA,0.233
12,AGACTTCA,-0.194
13,AATTGGTA,0.12
14,GCTGTCTA,-0.0102
15,CGATTCAG,0.0573
16,CCATTAGC,-0.0358
17,CAAGGTCG,0.00137
18,AAGAGTCT,-0.213
19,CGGGCCTC,-0.0517
20,CACTGAAG,0.0593
21,CGAGTTAA,0.264
22,AAAACACC,-0.0282

# Another view of part of the listing above.
row	Sequence	PBM E-score
4	CAACGGAC	-0.0576
15	CGATTCAG	0.0573
16	CCATTAGC	-0.0358
